Experimental data published in the supplement of paper PMC7877785.
± gives the uncertainty stated by the source. The uncertainty is large for many entries.

Test: self-splicing fitness, log relative to wild type (ln ratio); higher = more splicing; Tetrahymena group I intron in knt gene, E. coli kanamycin selection, DiMSum; sequences stand for … in CUCUCU…GGAGGGAAAAGUUAUCAGGCAUGCACCUGGUAGCUAGUCUUUAAACCAAUAGAUUGCAUCGGUUUAAAAGGCAAGACCGUCAAAUUGCGGGAAAGGGGUCAACAGCCGUUCAGUACCAAGUCUCAGGGGAAACUUUGAGAUGGCCUUGCAAAGGGUAUGGUAAUAAGCUGACGGACAUGGUCCUAACCACGCAGCCAAGUCCUAAGUCAACAGAUCUUCUGUUGAUAUGGAUGCAGUUCACAGACUAAAUGUCGGUCGGGGAAGAUGUAUUCUUCUCAUAAGAUAUAGUCGGACCUCUCCUUAAUGGGAGCUAGCGGAUGAAGUGAUGCAACACUGGAGCCGCUGGGAACUAAUUUGUAUGCGAAAGUAUAUUGAUUAGUUUUGGAGUACUCGUGGUCG
Procedure, shortened: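 Pooled colonies went to amplicon sequencing on an Illumina HiSeq 2500 after six replicate transformations. The plates were LB agar with 100 μg/mL carbenicillin, 50 μM IPTG and 0.2% rhamnose, with or without 25 μg/mL kanamycin, incubated overnight at 37°C or 30°C. The E. coli BL21(DE3) library had all eight P1ex-region intron nucleotides randomised, the intron placed in the knt kanamycin-resistance gene on pET-22b(+). DiMSum fitness is the error-weighted combination of replicate fold changes, kanamycin against none, normalised to wild type.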

Sequence	self-splicing fitness (ln) (30 °C)	self-splicing fitness (ln) (37 °C)
CGUUAGCAAUAUUACGACGC	-1.98 ± 0.86	–
GGCAAGCAAUAUUACGCCCC	-4.13 ± 0.73	–
AGCGAGCAAUAUUACGAUAA	-3.59 ± 0.52	–
CUGUAGCAAUAUUACGCAUA	-2.83 ± 0.47	-2.43 ± 0.41
UUUGAGCAAUAUUACGUUCA	-3.55 ± 0.6	–
CGCUAGCAAUAUUACGGAGA	-3.33 ± 0.61	-2.2 ± 0.36
UAACAGCAAUAUUACGCUUC	-2.39 ± 0.51	-1.98 ± 0.64
AGAGAGCAAUAUUACGUGCC	-2.63 ± 0.56	-3.27 ± 1
UACGAGCAAUAUUACGACCG	–	-1.78 ± 1.2
UGAAAGCAAUAUUACGCGGU	-4.28 ± 0.73	–
ACACAGCAAUAUUACGUCAA	-2.25 ± 0.19	-1.99 ± 0.14
UCUCAGCAAUAUUACGAGGU	-3.27 ± 1.1	–
CAGGAGCAAUAUUACGCCGG	-3.78 ± 0.52	–
GUUGAGCAAUAUUACGAACU	-4.3 ± 0.72	–
AGCUAGCAAUAUUACGAAAC	-4.1 ± 0.61	–
UCGGAGCAAUAUUACGCAAG	-3.24 ± 0.62	-2.23 ± 0.43
UCGAAGCAAUAUUACGAUAC	–	-3.48 ± 1
CGAGAGCAAUAUUACGUUGA	–	-1.68 ± 0.73
UAGUAGCAAUAUUACGCGAA	-1.93 ± 0.67	–
GGGAAGCAAUAUUACGCUCC	-3.42 ± 0.77	-2.39 ± 1.1
CGCAAGCAAUAUUACGACUU	-4.41 ± 0.51	–
UGUGAGCAAUAUUACGCUUC	–	-4.25 ± 1
AGCAAGCAAUAUUACGUGCC	-4.13 ± 0.74	–
GAUGAGCAAUAUUACGUAUA	-1.84 ± 0.58	–
AGUUAGCAAUAUUACGAAAC	-1.93 ± 0.82	–
GUAGAGCAAUAUUACGCGUC	-0.836 ± 0.18	-0.0736 ± 0.22
CUACAGCAAUAUUACGUCCC	-5.26 ± 1	-2.84 ± 0.53

Sequence	self-splicing fitness (ln) (30 °C)	self-splicing fitness (ln) (37 °C)
UACGAGCAAUAUUACGAAAC	–	-2.77 ± 0.54
AGGGAGCAAUAUUACGAAGA	-0.226 ± 0.82	-2.86 ± 1.1
AAGGAGCAAUAUUACGGACA	-4.04 ± 1	-3.34 ± 0.6
CUCAAGCAAUAUUACGAGCC	-4.27 ± 0.52	–
UUUCAGCAAUAUUACGUUCC	-3.19 ± 1.2	-1.88 ± 1.2
GGGCAGCAAUAUUACGCUCC	–	0.241 ± 0.7
GAUCAGCAAUAUUACGUCCU	-0.874 ± 0.1	-0.0507 ± 0.092
UUUGAGCAAUAUUACGCCUU	–	-2.2 ± 0.45
ACGCAGCAAUAUUACGCAAA	-2.51 ± 0.13	-1.77 ± 0.14
CUAGAGCAAUAUUACGCCCC	-3.72 ± 1	–
CCAGAGCAAUAUUACGGUCA	-3.91 ± 0.62	-2.87 ± 0.53
UACGAGCAAUAUUACGCCAC	-3.89 ± 0.6	–
GCCGAGCAAUAUUACGCGCC	–	-1.17 ± 0.61
AGAUAGCAAUAUUACGAGAG	-3.7 ± 0.29	-2.37 ± 0.25
GUUCAGCAAUAUUACGAACC	–	-2.14 ± 0.77
UUAUAGCAAUAUUACGAUAU	-1.97 ± 0.13	-0.578 ± 0.17
CCUGAGCAAUAUUACGAUCU	–	-2.86 ± 0.61
AUGGAGCAAUAUUACGAGGA	-4.4 ± 1	-1.98 ± 0.81
UAUGAGCAAUAUUACGUGGU	-4.91 ± 1	–
UCCGAGCAAUAUUACGGCCG	–	-3.49 ± 1
CUGUAGCAAUAUUACGCUGG	-2.84 ± 0.75	–
AGGAAGCAAUAUUACGGCCC	-1.85 ± 0.88	–
CAGUAGCAAUAUUACGCAAA	-3.74 ± 0.62	–
GUUGAGCAAUAUUACGUGAA	-3.95 ± 0.59	–
AUUGAGCAAUAUUACGGGUC	–	-1.64 ± 0.66
GAUCAGCAAUAUUACGCCAC	-2.09 ± 1.4	–
UAUCAGCAAUAUUACGAAAA	-0.436 ± 0.13	-0.123 ± 0.17

Whole records, quoted from the list.
AGGGAGCAAUAUUACGAAGA as listed: self-splicing fitness (ln) (30 °C): -0.226 ± 0.82; self-splicing fitness (ln) (37 °C): -2.86 ± 1.1
CUGUAGCAAUAUUACGCUGG as listed: self-splicing fitness (ln) (30 °C): -2.84 ± 0.75
AGAUAGCAAUAUUACGAGAG as listed: self-splicing fitness (ln) (30 °C): -3.7 ± 0.29; self-splicing fitness (ln) (37 °C): -2.37 ± 0.25
UACGAGCAAUAUUACGCCAC as listed: self-splicing fitness (ln) (30 °C): -3.89 ± 0.6
